Results are given in words; binding and its absence hold for the method and conditions named. Binding seen in cells or lysates may run through a third protein.
Target: Myc-tagged KLF2 (UniProt Q60843)
Test: co-IP; HEK293T transfected with wild-type or deletion mutants of TAZ and Myc-tagged KLF2; immunoprecipitation with Myc-tag antibodies, immunoblot

Sequences of proteins named here, by UniProt entry; tags and fusion partners are left off. A change or cut given only in a name is not applied to a line headed by its entry.
UniProt Q60843: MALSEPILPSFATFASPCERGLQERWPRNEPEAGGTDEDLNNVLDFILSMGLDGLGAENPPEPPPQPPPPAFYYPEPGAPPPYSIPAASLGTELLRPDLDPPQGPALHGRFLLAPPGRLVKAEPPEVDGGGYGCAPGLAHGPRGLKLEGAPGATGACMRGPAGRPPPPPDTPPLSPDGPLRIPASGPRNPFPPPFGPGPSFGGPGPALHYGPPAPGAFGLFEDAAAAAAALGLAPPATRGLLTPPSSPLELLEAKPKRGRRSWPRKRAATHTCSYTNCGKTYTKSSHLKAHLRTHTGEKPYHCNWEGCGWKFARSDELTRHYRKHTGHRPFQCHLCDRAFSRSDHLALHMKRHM
UniProt Q9EPK5: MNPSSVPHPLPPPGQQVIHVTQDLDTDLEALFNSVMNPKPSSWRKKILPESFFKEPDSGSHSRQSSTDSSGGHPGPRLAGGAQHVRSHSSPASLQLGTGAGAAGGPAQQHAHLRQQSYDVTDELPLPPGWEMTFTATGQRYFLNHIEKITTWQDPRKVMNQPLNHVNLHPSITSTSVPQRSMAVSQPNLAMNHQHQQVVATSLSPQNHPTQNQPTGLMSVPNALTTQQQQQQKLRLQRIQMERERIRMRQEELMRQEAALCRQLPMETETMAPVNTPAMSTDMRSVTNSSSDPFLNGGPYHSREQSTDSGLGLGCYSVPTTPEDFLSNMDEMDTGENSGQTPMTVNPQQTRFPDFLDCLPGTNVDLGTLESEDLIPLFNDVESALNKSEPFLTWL

Substance: TAZ∆WW (from UniProt Q9EPK5)
- binding: no binding
